# Laboratory results as given in article PMC6974145.
# These are yes or no findings as the source states them, for the method shown. Where a sequence is shown, tags or fusion partners need not be part of it.
# T1: GST-IFNAR1cyt (GST fusion protein containing the cytoplasmic domain of IFNAR1) (UniProt P17181)
# T1 sequence: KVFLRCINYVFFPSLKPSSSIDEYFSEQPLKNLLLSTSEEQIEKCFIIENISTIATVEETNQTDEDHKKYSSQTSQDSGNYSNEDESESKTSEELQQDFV
# B1: His-TYK2-FERM-SH2 ΔE8 (N-ter portion of TYK2, aa 1-591, lacking the exon 8-encoded aa 338-403) (domain or fragment, UniProt P29597)
# chain: MPLRHWGMARGSKPVGDGAQPMAAMGGLKVLLHWAGPGGGEPWVTFSESSLTAEEVCIHIAHKVGITPPCFNLFALFDAQAQVWLPPNHILEIPRDASLMLYFRIRFYFRNWHGMNPREPAVYRCGPPGTEASSDQTAQGMQLLDPASFEYLFEQGKHEFVNDVASLWELSTEEEIHHFKNESLGMAFLHLCHLALRHGIPLEEVAKKTSFKDCIPRSFRRHIRQHSALTRLRLRNVFRRFLRDFQPGRLSQQMVMVKYLATLERLAPRFGTERVPVCHLRLLAQAEGEPCYIRDSGVAPTDPGPESAAGPPTHEVLVTGTGGIQWWPVEEEVNKEEELSLPSRAAALSFVSLVDGYFRLTADSSHYLCHEVAPPRLVMSIRDGIHGPLLEPFVQAKLRPEDGLYLIHWSTSHPYRLILTVAQRSQAPDGMQSLRLRKFPIEQQDGAFVLEGWGRSFPSVRELGAALQGCLLRAGDDCFSLRRCCLPQPGETSNLIIMRGARASPRTLNLSQLSFHRVDQKEITQ
# Target: T1, GST-IFNAR1cyt (GST fusion protein containing the cytoplasmic domain of IFNAR1)
# Test: pull-down; about 2 ug GST fusion protein bound to glutathione-Sepharose, His-tagged protein in solution; 100 ul binding buffer (0.1% Nonidet P-40, 10% glycerol, 50 mM NaCl, 50 mM Tris-HCl pH 8, 1 mM DTT) with 0.5% BSA and protease inhibitors, 60 min at 4°C; three washes; immunoblot with TYK2 Abs; both …
binder,measurement,value
B1,binding,no binding
